PubChem BioAssay AID504774 – Drosophila RNAi Screening Center – 2011
The screen tested about 23,000 reagents; below is a random part of those with a known target gene and a result. 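Values are quantile-normalised luminescence on an arbitrary scale; higher means more cells surviving MMS.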 The numbers tell different reagents against one gene apart. Names joined by + are all predicted targets of the reagent. Further read-outs or replicates are left out here.

- Assay: 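Genes required for cells to withstand methyl methanesulphonate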 (primary screen)
- System: Drosophila Kc167 cells
- Reagent: long dsRNA against Drosophila genes, about 0.25 µg dsRNA per well
- Time to read-out: about 6 days: 3 days knock-down, then 3 days with or without MMS
- Treatment: methyl methanesulphonate 0.004% (w/v) for 3 days after knock-down
- Read-out: 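ATP-dependent luminescence as a measure of live cells in MMS-exposed wells, quantile normalised within each plate, with replicate values also given as a mean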
- Reading the numbers: mean viability with MMS: higher = more surviving cells after MMS

La (GeneID 35305) scored mean viability with MMS 3.57e6.
Against RhoGEF2 (GeneID 36915), the values are mean viability with MMS 3.52e6.
With knock-down of CG34198 (GeneID 5740481), the screen gave mean viability with MMS 3.41e6.
Nup37 (GeneID 43040) scored mean viability with MMS 3.59e6.
CG15221 (GeneID 32127) gave mean viability with MMS 3.74e6.
For sotv + CG10731 #1, the values are mean viability with MMS 3.53e6.
Depletion of sotv + CG10731 #2 came out at: mean viability with MMS 3.54e6.

Ordered by “mean viability with MMS” (high to low): 2 of the entries above
CG15221 (GeneID 32127) — mean viability with MMS: 3.74e6
sotv + CG10731 #1 — mean viability with MMS: 3.53e6

More results:
Vps8 (GeneID 38735) gave mean viability with MMS 3.45e6.
Silencing of CG7963 (GeneID 41001) came out at: mean viability with MMS 3.69e6.
For CG6325 (GeneID 41268) the deposit lists mean viability with MMS 3.58e6.
CG3430 (GeneID 33976) gave mean viability with MMS 3.58e6.
OSCP1 (GeneID 36300) gave mean viability with MMS 3.51e6.
Silencing of Act5C (GeneID 31521) gave: mean viability with MMS 3.56e6.
Obp99c (GeneID 43494) showed mean viability with MMS 3.61e6.
